From article PMC8491023 come the findings set out here.

In test [1] the target is T1, EDS1-ZZ-TEV-FLAG (Arabidopsis thaliana) (UniProt Q9SU72).
T1 sequence: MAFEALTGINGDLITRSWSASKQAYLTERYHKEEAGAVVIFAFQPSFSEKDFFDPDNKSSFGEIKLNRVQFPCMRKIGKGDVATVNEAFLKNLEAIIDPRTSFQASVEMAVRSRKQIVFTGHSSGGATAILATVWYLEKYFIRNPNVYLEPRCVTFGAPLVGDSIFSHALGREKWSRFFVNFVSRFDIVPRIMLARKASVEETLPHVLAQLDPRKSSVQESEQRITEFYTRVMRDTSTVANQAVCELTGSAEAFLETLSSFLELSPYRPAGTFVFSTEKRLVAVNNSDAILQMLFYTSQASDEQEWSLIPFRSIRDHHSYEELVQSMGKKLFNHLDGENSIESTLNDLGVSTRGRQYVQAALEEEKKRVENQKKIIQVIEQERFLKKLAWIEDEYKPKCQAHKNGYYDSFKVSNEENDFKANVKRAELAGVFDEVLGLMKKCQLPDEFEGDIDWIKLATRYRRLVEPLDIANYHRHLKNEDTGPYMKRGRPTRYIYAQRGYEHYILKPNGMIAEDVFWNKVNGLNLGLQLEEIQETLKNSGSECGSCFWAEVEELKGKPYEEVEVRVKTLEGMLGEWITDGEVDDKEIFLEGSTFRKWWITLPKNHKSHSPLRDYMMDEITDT
In words: proximity labelling; TurboID-based proximity labelling in N. benthamiana; EDS1-ZZ-TEV-FLAG and PAD4-ZZ-TEV-FLAG co-expressed with ADR1-L1-HA-TurboID, without or with RBA1 (or NADase-dead RBA1 E86A) pre-treatment; IP with anti-FLAG beads, biotinylated proteins detected with Streptavidin-HRP.

Test [2] concerns the target T2, PAD4-ZZ-TEV-FLAG (Arabidopsis thaliana) (UniProt Q9S745).
T2 sequence: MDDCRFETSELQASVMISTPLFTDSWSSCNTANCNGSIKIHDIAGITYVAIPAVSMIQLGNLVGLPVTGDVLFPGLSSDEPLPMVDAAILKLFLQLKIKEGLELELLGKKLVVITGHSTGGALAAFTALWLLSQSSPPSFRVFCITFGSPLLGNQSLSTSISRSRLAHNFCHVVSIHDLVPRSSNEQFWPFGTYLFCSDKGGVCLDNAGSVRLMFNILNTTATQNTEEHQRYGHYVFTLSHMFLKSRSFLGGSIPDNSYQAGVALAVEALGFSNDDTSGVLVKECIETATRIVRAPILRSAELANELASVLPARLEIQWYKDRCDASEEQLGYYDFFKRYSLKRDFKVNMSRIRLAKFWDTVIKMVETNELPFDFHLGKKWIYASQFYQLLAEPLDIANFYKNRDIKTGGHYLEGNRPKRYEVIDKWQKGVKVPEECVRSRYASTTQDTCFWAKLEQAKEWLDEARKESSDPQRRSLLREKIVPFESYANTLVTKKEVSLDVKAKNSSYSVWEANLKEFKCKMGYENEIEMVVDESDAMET
The description is as above.

The target of test [3] is T3, SAG101-3FLAG (Arabidopsis thaliana) (UniProt Q4F883).
T3 sequence: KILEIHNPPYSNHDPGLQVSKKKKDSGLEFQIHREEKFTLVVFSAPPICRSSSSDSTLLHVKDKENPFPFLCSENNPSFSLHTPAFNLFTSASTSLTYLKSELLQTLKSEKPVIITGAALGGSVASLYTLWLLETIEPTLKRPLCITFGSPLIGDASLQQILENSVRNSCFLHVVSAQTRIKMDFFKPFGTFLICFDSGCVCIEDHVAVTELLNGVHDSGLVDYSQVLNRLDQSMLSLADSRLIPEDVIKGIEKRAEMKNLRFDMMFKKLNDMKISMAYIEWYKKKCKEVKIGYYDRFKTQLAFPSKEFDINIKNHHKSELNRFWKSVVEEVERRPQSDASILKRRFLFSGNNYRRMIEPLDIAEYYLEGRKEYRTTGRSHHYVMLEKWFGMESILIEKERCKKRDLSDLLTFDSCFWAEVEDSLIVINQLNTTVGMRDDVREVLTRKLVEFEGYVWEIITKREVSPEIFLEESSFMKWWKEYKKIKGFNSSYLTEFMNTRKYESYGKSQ
The test is described as follows: proximity labelling; TurboID-based proximity labelling in N. benthamiana; EDS1-ZZ-TEV-FLAG and SAG101-3FLAG expressed with ADR1-L1-HA-TurboID (Supplemental Figure S5).

Test [4] has as its target T1, EDS1-ZZ-TEV-FLAG (Arabidopsis thaliana). The test is described as above.

Results are given in words; binding and its absence hold for the method and conditions named. Binding seen in cells or lysates may run through a third protein. These calls come from enrichment with a bait or labelling near it, and not all partners need be listed. For some of these results: No binding means not detected with the bait. Tags and fused reporters may be left off the sequences shown.

With “ADR1-L1-HA-TurboID (Arabidopsis thaliana) (receptor)”, the binding result in test [1] was “binds”; in test [2], “binds”; in test [3], “no binding”; in test [4], “binds”.
